In US20250313631A1 one finds binding data, which are given here for six molecules.

Positions count from the first letter of the chain named. Results are given in words; binding and its absence hold for the method and conditions named. Some entries that bind do so weakly or less than the wild type.

Assay [1] has as its target recombinant cynomolgus macaque VISTA (His-tagged) (cynomolgus macaque). Kind of assay: ELISA. (In an ELISA, binding on a coated surface is turned into a signal by an enzyme label.)
Assay [2] shares this target. Kind of assay: ELISA, target protein coated, absorbance 450 nm.
For assay [3] the target is unchanged. The assay is described as follows: ELISA, plate coated with cyno VISTA.

B1: anti-VISTA clone 13D5-1 IgG1 (antibody, V domains shown)
VH: QVQLQQSGAELVRPGTSVKISCKASGYTFTNYWLGWVKQRPGHGLEWIGDIYPGGGYTNYNEKFKGKATLTADTSSSTAYMQLSSLTSEDSAVYFCVRSGYYYGSSWYFDVWGAGTTVTVSS
VL: DVLMTQTPLSLPVSLGDQASISCRSSQSIVHSSGNTYLEWYLQKPDQSPKLLIYKVSNRFSGVPDRFSGSGSGTDFTLKISRVEAEDLGVYYCFQGSHVPPTFGGGTKLEIKR
Consider B1, for which the binding result in assay [1] and in assay [2] was “binds” each time.

B2: anti-VISTA clone V4-C24 IgG1 (antibody, V domains shown)
VH: QVQLQESGPGLVKPSDTLSLTCTVSGYSITSDYTWNWIRQTPGKGLEWIGHITYSGSVSYNPSLRSRVTISRDTSKNQFSLKLSSVTAADTATYSCARALYYPWYFDVWGTGTTVTVSS
VL: EIVLTQSPATLSLSPGERATLSCRASSSVGYIHWYQQKPGQAPRPLIYTTSYRATGIPARFSGSGSGTDNTLTISSLEPEDSAVYYCQQWSSYPPITFGGGTKLEVKR
Consider B2, for which the binding result in assay [3] and in assay [1] was “binds” each time.

B3: anti-VISTA clone V4-C31 IgG1 (antibody, V domains shown)
VH: B2 VH
VL: B2 VL with T49A, S51Y, A54T
Regarding B3, the binding entry in assay [3] and in assay [1] was “binds” in each case.

B4: anti-VISTA clone V4-C28 IgG1 (antibody, V domains shown)
VH: B2 VH
VL: B2 VL with T49A
In the case of B4, the binding result in assay [3] and in assay [1] was “binds” throughout.

B5: anti-VISTA clone V4-C30 IgG1 (antibody, V domains shown)
VH: B2 VH
VL: B2 VL with T49A, S51Y
With B5, the binding result in assay [3] and in assay [1] was “binds” each time.

B6: anti-VISTA clone V4-C27 IgG1 (antibody, V domains shown)
VH: B2 VH
VL: B2 VL with T49A, S51Y, Y52N
Turning to B6, the binding result in assay [3] and in assay [1] was “binds” in each case.
